According to the supplement of paper PMC8612539:
≈ marks a conversion by molar mass, not a printed value. This continues a long series; more values of the same kind are listed elsewhere.

Tested on: Escherichia coli
Test: minimum inhibitory concentration (MIC)
Protocol: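 Broth microdilution MIC (Sensititre BOPO7F bovine plate, CLSI methods) of 19 antimicrobials against field isolates of P. multocida, M. haemolytica, H. somni (deep nasopharyngeal swabs) and E. coli, Enterococcus spp. (rectal swabs) from weaned dairy heifers. Incubation 16-24 h at 35 C. MIC is the lowest concentration preventing visible growth. Values with <= or > lie at the tested range limits. Trimethoprim-sulfamethoxazole is given as the trimethoprim component of a 1:19 mixture.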

CN(C)[C@@H]1C(O)=C(C(N)=O)C(=O)[C@@]2(O)C(O)=C3C(=O)c4c(O)cccc4[C@@](C)(O)[C@H]3C[C@@H]12 [Tetracycline]
Conditions | minimum inhibitory concentration [µg/mL]
isolate (source animal id): 1 | 1 (≈ 2.25 µM)
isolate (source animal id): 2 | > 8
isolate (source animal id): 3 | > 8
isolate (source animal id): 4 | > 8
isolate (source animal id): 5 | > 8
isolate (source animal id): 6 | > 8
isolate (source animal id): 7 | > 8
isolate (source animal id): 17 | > 8
isolate (source animal id): 18 | > 8
isolate (source animal id): 19 | 1 (≈ 2.25 µM)
isolate (source animal id): 20 | > 8
isolate (source animal id): 21 | > 8
isolate (source animal id): 22 | 1 (≈ 2.25 µM)
isolate (source animal id): 23 | 1 (≈ 2.25 µM)
isolate (source animal id): 24 | > 8
isolate (source animal id): 25 | > 8
isolate (source animal id): 26 | 1 (≈ 2.25 µM)
isolate (source animal id): 27 | > 8
isolate (source animal id): 28 | 1 (≈ 2.25 µM)
isolate (source animal id): 29 | > 8
isolate (source animal id): 30 | > 8
isolate (source animal id): 31 | > 8
isolate (source animal id): 32 | > 8
isolate (source animal id): 33 | > 8
isolate (source animal id): 34 | > 8
isolate (source animal id): 35 | > 8
isolate (source animal id): 36 | > 8
isolate (source animal id): 37 | > 8
isolate (source animal id): 38 | > 8
isolate (source animal id): 39 | > 8
isolate (source animal id): 40 | > 8
isolate (source animal id): 41 | > 8
isolate (source animal id): 42 | > 8
isolate (source animal id): 43 | > 8
isolate (source animal id): 44 | > 8
isolate (source animal id): 45 | > 8
isolate (source animal id): 46 | > 8
isolate (source animal id): 47 | > 8
isolate (source animal id): 48 | > 8
isolate (source animal id): 49 | > 8
isolate (source animal id): 50 | > 8
isolate (source animal id): 51 | > 8
isolate (source animal id): 52 | 1 (≈ 2.25 µM)
isolate (source animal id): 53 | > 8
isolate (source animal id): 54 | > 8
isolate (source animal id): 55 | > 8
isolate (source animal id): 56 | 2 (≈ 4.5 µM)
isolate (source animal id): 57 | > 8
isolate (source animal id): 58 | > 8
isolate (source animal id): 59 | 1 (≈ 2.25 µM)
isolate (source animal id): 60 | > 8
isolate (source animal id): 61 | > 8
isolate (source animal id): 62 | > 8
isolate (source animal id): 63 | > 8
isolate (source animal id): 64 | > 8
isolate (source animal id): 65 | > 8
isolate (source animal id): 66 | > 8
isolate (source animal id): 67 | > 8
isolate (source animal id): 68 | > 8
isolate (source animal id): 69 | > 8
isolate (source animal id): 70 | > 8
isolate (source animal id): 71 | > 8
isolate (source animal id): 72 | > 8
isolate (source animal id): 73 | 1 (≈ 2.25 µM)
isolate (source animal id): 74 | > 8
isolate (source animal id): 75 | > 8
isolate (source animal id): 76 | > 8
isolate (source animal id): 77 | > 8
isolate (source animal id): 78 | > 8
isolate (source animal id): 79 | > 8
isolate (source animal id): 80 | 1 (≈ 2.25 µM)
isolate (source animal id): 81 | > 8
isolate (source animal id): 82 | > 8
isolate (source animal id): 83 | > 8
isolate (source animal id): 84 | > 8
isolate (source animal id): 85 | 1 (≈ 2.25 µM)
isolate (source animal id): 86 | > 8
isolate (source animal id): 87 | > 8
isolate (source animal id): 88 | > 8
isolate (source animal id): 89 | > 8
isolate (source animal id): 90 | > 8
isolate (source animal id): 91 | > 8
isolate (source animal id): 92 | > 8
isolate (source animal id): 93 | > 8
isolate (source animal id): 94 | > 8
isolate (source animal id): 95 | > 8
isolate (source animal id): 96 | > 8
isolate (source animal id): 97 | > 8
isolate (source animal id): 189 | > 8
isolate (source animal id): 190 | > 8
isolate (source animal id): 191 | 1 (≈ 2.25 µM)
isolate (source animal id): 192 | > 8
isolate (source animal id): 193 | > 8
isolate (source animal id): 194 | 1 (≈ 2.25 µM)
isolate (source animal id): 195 | 1 (≈ 2.25 µM)
isolate (source animal id): 196 | > 8
isolate (source animal id): 197 | > 8
isolate (source animal id): 198 | > 8
isolate (source animal id): 199 | > 8
isolate (source animal id): 200 | > 8
isolate (source animal id): 201 | > 8
isolate (source animal id): 202 | > 8
isolate (source animal id): 203 | > 8
isolate (source animal id): 204 | > 8
isolate (source animal id): 205 | > 8
isolate (source animal id): 206 | 1 (≈ 2.25 µM)
isolate (source animal id): 207 | > 8
isolate (source animal id): 208 | > 8
isolate (source animal id): 209 | > 8
isolate (source animal id): 210 | > 8
isolate (source animal id): 211 | > 8
isolate (source animal id): 212 | > 8
isolate (source animal id): 213 | > 8
isolate (source animal id): 214 | > 8
isolate (source animal id): 215 | 1 (≈ 2.25 µM)
isolate (source animal id): 216 | > 8
isolate (source animal id): 217 | 1 (≈ 2.25 µM)
isolate (source animal id): 218 | 2 (≈ 4.5 µM)
isolate (source animal id): 219 | > 8
isolate (source animal id): 220 | > 8
